Drawing on US20210284749A1, this text covers binding for 9 molecules.

The chains behind the UniProt entries cited, without tags or fusion partners. Where a name states a change or a piece, a line headed by the entry shows the natural chain unless it says otherwise.
UniProt Q02223: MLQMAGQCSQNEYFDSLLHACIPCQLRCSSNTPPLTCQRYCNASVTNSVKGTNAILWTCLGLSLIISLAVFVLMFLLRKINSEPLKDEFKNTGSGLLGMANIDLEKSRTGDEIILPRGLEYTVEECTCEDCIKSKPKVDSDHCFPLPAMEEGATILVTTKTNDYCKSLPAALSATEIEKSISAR

Changes are numbered by the printed parent chain. Results are given in words; binding and its absence hold for the method and conditions named. Some results given as binding are weak or reduced against the parent protein; the word gives no strength. For some assays here: Sequences can lack the tags named with a protein.

For test [1], the target named is recombinant human BCMA (ELISA antigen, construct not specified) (human) (UniProt Q02223). In words: ELISA on coated recombinant human BCMA, antibody titrated, HRP anti-Fab detection, absorbance 450 nm.
Test [2] shares this target. In words: ELISA, coated recombinant antigen, IgG titrated. A general note: ELISA stands for enzyme-linked immunosorbent assay.
Test [3] addresses T1, TACI-Fc (R&D system, 174-TC) (human) (UniProt O14836).
T1 sequence (looked up): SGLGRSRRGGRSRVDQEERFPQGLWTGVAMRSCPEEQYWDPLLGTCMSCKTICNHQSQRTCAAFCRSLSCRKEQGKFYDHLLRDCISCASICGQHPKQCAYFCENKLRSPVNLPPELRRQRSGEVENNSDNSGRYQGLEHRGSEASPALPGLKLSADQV
In words: ELISA on 100 ng coated TACI-Fc, single antibody level (concentration not given), anti-human Fab HRP, absorbance 450 nm.

Test [4] addresses recombinant human BCMA (ELISA antigen, construct not specified) (human) (UniProt Q02223). In words: ELISA on 100 ng coated human BCMA, antibody titrated, anti-human Fab HRP, absorbance 450 nm.
For test [5] the target is unchanged. The test is described as follows: ELISA, 100 ng coated antigen.
The target of test [6] is T1, TACI-Fc (R&D system, 174-TC) (human). The test is described as follows: ELISA, 100 ng coated per well.
The target in test [7] is T2, BAFF-receptors (R&D system, 1162-BR) (human) (UniProt Q96RJ3).
T2 sequence (looked up): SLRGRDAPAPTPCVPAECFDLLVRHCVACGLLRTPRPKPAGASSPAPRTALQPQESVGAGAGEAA
The test is described as follows: ELISA, 100 ng coated per well.

Test [8] concerns the target T2, BAFF-receptors (R&D system, 1162-BR) (human). The test is described as follows: ELISA on 100 ng coated BAFF-receptor, single antibody level (concentration not given), anti-human Fab HRP, absorbance 450 nm.
Test [9] addresses human monomeric BCMA antigen (human) (UniProt Q02223). In words: SPR (Biacore T200).
Test [10] addresses recombinant human BCMA (ELISA antigen, construct not specified) (human) (UniProt Q02223). The test is described as follows: ELISA on recombinant BCMA.
For test [11], the target named is human monomeric BCMA antigen (human) (UniProt Q02223). In words: SPR (Biacore T200), antibody captured on protein A chip.

B1: anti-BCMA IgG antibody 4H9 (antibody, V domains shown)
VH: EVQLLESGGGLVQPGGSLRLSCAASGFTFSGYSMSWVRQAPGKGLEWVSSIYHTGYTYYNPSLKSRFTISRDNSKNTLYLQMNSLRAEDTAVYYCARYKSGAFDIWGQGTLVTVSS
VL: EIVLTQSPGTLSLSPGERATLSCRASQSVSRNLAWYQQKPGQAPRLLIYGVSSRATGIPDRFSGSGSGTDFTLTISRLEPEDFAVYYCQQYGSSPPTFGQGTKVEIKR
Regarding B1, the binding result in [1] and in [2] was “binds” each time.

B2: anti-BCMA IgG antibody 5A6 (antibody, V domains shown)
VH: EVQLLESGGGLVQPGGSLRLSCAASGFTFSNYGVHWVRQAPGKGLEWVSYISYSGGTYYNPSLKSRFTISRDNSKNTLYLQMNSLRAEDTAVYYCARDSDDFGFDYWGQGTLVTVSS
VL: QSVLTQPPSASGTPGQRVTISCQGDSLRSYYVNWYQQLPGTAPKLLIYDHSKRPTGVPDRFSGSKSGTSASLAISGLRSEDEADYYCQSYDSSTVVFGGGTKLTVLG
As to B2, the binding result in test [3] was “no binding”; in test [1] it was “binds”; in [4] it was “binds”; in test [2] it was “binds”; in test [5] it was “binds”; in test [6] it was “no binding”. For the same molecule, the binding entry in test [7] and in test [8] was “no binding” each time.

B3: mutant antibody 5A6 LM6 (antibody, V domains shown)
VH: B2 VH
VL: B2 VL with D25E, S92A
Regarding B3, the binding result in [9], in [10] and in [11] was “binds” each time.

B4: anti-BCMA IgG antibody B58 (antibody, V domains shown)
VH: EVQLLESGGGLVQPGGSLRLSCAASGFTFSNYDMSWVRQAPGKGLEWVSWIYPSDSSIYYADSVKGRFTISRDNSKNTLYLQMNSLRAEDTAVYYCARGPFANKYRQFDYWGQGTLVTVSS
VL: QSVLTQPPSASGTPGQRVTISCSGSSSNIGSNSVSWYQQLPGTAPKLLIYADSKRPSGVPDRFSGSKSGTSASLAISGLRSEDEADYYCGSWDYSLSGYVFGGGTKLTVL
In the case of B4, the binding result in [3] is recorded as “no binding”; in [1], “binds”; in [4] it was “binds”; in test [2], “binds”; in [5] it was “binds”; in test [6], “no binding”. Further, the binding entry in test [7] and in [8] was “no binding” in each case.

B5: anti-BCMA IgG antibody 5B5 (antibody, V domains shown)
VH: EVQLLESGGGLVQPGGSLRLSCAASGFTFSGHYWSWVRQAPGKGLEWVSTVSGSGGDTFYADSVKGRFTISRDNSKNTLYLQMNSLRAEDTAVYYCARGHSVMDVWGQGTLVTVSS
VL: EIVLTQSPGTLSLSPGERATLSCRASQGIDSYVAWYQQKPGQAPRLLIYDASLRATGIPDRFSGSGSGTDFTLTISRLEPEDFAVYYCQQYNSWPITFGQGTKLEIKR
Take B5: the binding entry in test [3] was “no binding”; in test [1], “binds”; in test [4], “binds”; in [2], “binds”; in [5] it was “binds”; in test [6] it was “no binding”. In addition, the binding result in [7] and in test [8] was “no binding” each time.

B6: anti-BCMA IgG antibody 5D5 (antibody, V domains shown)
VH: EVQLLESGGGLVQPGGSLRLSCAASGFTFSDYGLSWVRQAPGKGLEWVSLIDSSGSSTFYADSVKGRFTISRDNSKNTLYLQMNSLRAEDTAVYYCAKEHGLFDSWGQGTLVTVSS
VL: B5 VL with R24K, G28D, S31D, Y32D, V33I, A34N, Y91S, N92L, S93R, W94T
For the molecule B6, the binding result in test [3] is “no binding”; in [1] it was “binds”; in test [4], “binds”; in test [2] it was “binds”; in test [5], “binds”; in test [6], “no binding”. For the same molecule, the binding result in test [7] and in test [8] was “no binding” in each case.

B7: mutant antibody 5D5 LM4 (antibody, V domains shown)
VH: B6 VH
VL: B5 VL with R24K, G28D, S31D, Y32A, V33I, A34N, Y91S, N92L, S93R, W94T
Take B7: the binding entry in test [9], in [10] and in test [11] was “binds” in each case.

B8: anti-BCMA IgG antibody 5C3 (antibody, V domains shown)
VH: EVQLLESGGGLVQPGGSLRLSCAASGFTFSDYYIHWVRQAPGKGLEWVSAISGSGGSTYYADSVKGRFTISRDNSKNTLYLQMNSLRAEDTAVYYCASDLGDTTFDSWGQGTLVTVSS
VL: EIVLTQSPGTLSLSPGERATLSCQASDDISNYLNWYQQKPGQAPRLLIYGVSNRASGIPDRFSGSGSGTDFTLTISRLEPEDFAVYYCQQSYSTPPITFGQGTKLEIKR
Take B8: the binding entry in test [1] and in [2] was “binds” each time.

B9: anti-BCMA IgG antibody 2G (antibody, V domains shown)
VH: EVQLVESGGGLVQPGGSLRLSCAASGFTFSNYAMSWVRQAPGKGLEWVSAISSSGSTIYYADSVKGRFTISRDNSKNTLYLQMNSLRAEDTAVYYCAKAGYYGSIYAFDYWGQGTLVTVSS
VL: DIQMTQSPSSLSASVGDRVTITCRASQSISSYLNWYQQKPGKAPKLLIYATSRLQSGVPSRFSGSGSGTDFTLTISSLQPEDFATYYCQQSSSFPWTFGQGTKVEIKR
Take B9: the binding entry in [1] and in [2] was “binds” throughout.
